# Screening data

From PubChem BioAssay record AID504749 (NCATS, 2011).

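A panel of P. falciparum strains inside erythrocytes is exposed to compounds for three days, then a DNA-binding dye reports the amount of parasite DNA.
Each compound was titrated across a series from about 0.000037 to 29 µM.
The number is the fitted AC50, the concentration giving a half-maximal change in signal; a lower value means higher potency, whether the curve shows a decrease or an increase.
Calls follow the curve class and fit quality: every row here is inconclusive, covering signal-raising curves and weak, poorly fitted, partial or highest-dose-only inhibition curves.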

Values are in µM.
All entries here are filed as inconclusive.
Only part of the assay is shown, chiefly results filed as inconclusive.
Potencies fitted to partial, single-point or poorly fitting curves are rough.
Some entries filed as inconclusive have a full curve.
The first word of each remark tells which way the curve ran; it can be opposite to the aim of the assay.

SMILES	setting	potency (µM)	remark
O=C1CCc2ccc(OCCCCN3CCN(c4cccc(Cl)c4Cl)CC3)cc2N1	CP286	17.78	inhibitor, single point
O=C1CCc2ccc(OCCCCN3CCN(c4cccc(Cl)c4Cl)CC3)cc2N1	CP335	19.01	inhibitor, single point
O=C1CCc2ccc(OCCCCN3CCN(c4cccc(Cl)c4Cl)CC3)cc2N1	ATS189	17.78	inhibitor, single point
O=C1CCc2ccc(OCCCCN3CCN(c4cccc(Cl)c4Cl)CC3)cc2N1	CP247	12.59	inhibitor, single point
O=C1CCc2ccc(OCCCCN3CCN(c4cccc(Cl)c4Cl)CC3)cc2N1	TAB109	11.22	inhibitor, single point
O=C1CCc2ccc(OCCCCN3CCN(c4cccc(Cl)c4Cl)CC3)cc2N1	AS120	10	inhibitor, single point
O=C1CCc2ccc(OCCCCN3CCN(c4cccc(Cl)c4Cl)CC3)cc2N1	TAB165	14.13	inhibitor, single point
O=C1CCc2ccc(OCCCCN3CCN(c4cccc(Cl)c4Cl)CC3)cc2N1	CP185	15.85	inhibitor, single point
O=C1CCc2ccc(OCCCCN3CCN(c4cccc(Cl)c4Cl)CC3)cc2N1	3D7	17.78	inhibitor, single point
O=C1CCc2ccc(OCCCCN3CCN(c4cccc(Cl)c4Cl)CC3)cc2N1	DFO2036	17.78	inhibitor, single point
O=C1CCc2ccc(OCCCCN3CCN(c4cccc(Cl)c4Cl)CC3)cc2N1	AA1029	17.78	inhibitor, single point
O=C1CCc2ccc(OCCCCN3CCN(c4cccc(Cl)c4Cl)CC3)cc2N1	CP238	12.59	inhibitor, single point
O=C1CCc2ccc(OCCCCN3CCN(c4cccc(Cl)c4Cl)CC3)cc2N1	N140	11.22	inhibitor, single point
O=C1CCc2ccc(OCCCCN3CCN(c4cccc(Cl)c4Cl)CC3)cc2N1	TAB113	17.78	inhibitor, single point
O=C1CCc2ccc(OCCCCN3CCN(c4cccc(Cl)c4Cl)CC3)cc2N1	ATS95	10	inhibitor, single point
O=C1CCc2ccc(OCCCCN3CCN(c4cccc(Cl)c4Cl)CC3)cc2N1	P94_40	17.78	inhibitor, single point
O=C1CCc2ccc(OCCCCN3CCN(c4cccc(Cl)c4Cl)CC3)cc2N1	HB3	11.22	inhibitor, single point
C[C@H]1CS(=O)(=O)CCN1/N=C\c1ccc([N+](=O)[O-])o1	GB4	9.074	inhibitor, partial curve, poor fit
C[C@H]1CS(=O)(=O)CCN1/N=C\c1ccc([N+](=O)[O-])o1	CP260	7.943	inhibitor, single point
C[C@H]1CS(=O)(=O)CCN1/N=C\c1ccc([N+](=O)[O-])o1	DIV17	5.726	inhibitor, single point
C[C@H]1CS(=O)(=O)CCN1/N=C\c1ccc([N+](=O)[O-])o1	W2	8.087	inhibitor, single point
C[C@H]1CS(=O)(=O)CCN1/N=C\c1ccc([N+](=O)[O-])o1	TAB109	0.7943	inhibitor, full curve
C[C@H]1CS(=O)(=O)CCN1/N=C\c1ccc([N+](=O)[O-])o1	DIV14	6.424	inhibitor, partial curve, poor fit
C[C@H]1CS(=O)(=O)CCN1/N=C\c1ccc([N+](=O)[O-])o1	7G8	3.548	inhibitor, partial curve
CCN(CC)CCOC(=O)C1(c2ccccc2)CCCC1	CP201	21.33	inhibitor, partial curve, poor fit
CCN(CC)CCOC(=O)C1(c2ccccc2)CCCC1	CP211	9.528	inhibitor, partial curve, poor fit
CCN(CC)CCOC(=O)C1(c2ccccc2)CCCC1	CP291	19.01	inhibitor, single point
CCN(CC)CCOC(=O)C1(c2ccccc2)CCCC1	3D7	19.95	inhibitor, single point
CCN(CC)CCOC(=O)C1(c2ccccc2)CCCC1	CP305	6.012	inhibitor, partial curve
CCN(CC)CCOC(=O)C1(c2ccccc2)CCCC1	PC49	8.912	inhibitor, single point
CCN(CC)CCOC(=O)C1(c2ccccc2)CCCC1	CP268	8.492	inhibitor, partial curve
O=C1c2ccccc2C(=O)C1C(=O)C(c1ccccc1)c1ccccc1	CP260	11.22	inhibitor, single point
O=C1c2ccccc2C(=O)C1C(=O)C(c1ccccc1)c1ccccc1	AS120	17.78	inhibitor, single point
O=C1c2ccccc2C(=O)C1C(=O)C(c1ccccc1)c1ccccc1	ICS	15.85	inhibitor, single point
O=C1c2ccccc2C(=O)C1C(=O)C(c1ccccc1)c1ccccc1	CP201	0.012	activator, full curve, poor fit
O=C1c2ccccc2C(=O)C1C(=O)C(c1ccccc1)c1ccccc1	3D7	10	inhibitor, partial curve
O=C1c2ccccc2C(=O)C1C(=O)C(c1ccccc1)c1ccccc1	7G8	11.22	inhibitor, partial curve, poor fit
O=C1c2ccccc2C(=O)C1C(=O)C(c1ccccc1)c1ccccc1	GB4	19.01	inhibitor, partial curve, poor fit
Cc1ncc(C[n+]2csc(CCOP(=O)(O)O)c2C)c(N)n1	CP250	3.162	inhibitor, single point
COP(=O)(OC)OC=C(Cl)Cl	ICS	17.78	inhibitor, single point
NCCc1cc(O)c(O)cc1O	Dd2	11.22	inhibitor, partial curve, poor fit
CCN(CC)CCC(=O)N1c2ccccc2Sc2ccc(C(F)(F)F)cc21	TAB109	11.22	inhibitor, single point